What follows is the remainder of the data, with few or none of the targets with a hit. Single values of this set are uncertain. This is a selection; strong and weak results do not stand in their true shares.
compound: COC(=O)/C=C/c1ccccc1 [methyl cinnamate]; assay: log2 ratio of iodoacetamide-alkyne labeling of the cysteine site, DMSO over compound (competition); higher = stronger covalent engagement of the cysteine by the compound, active = 1 or more; details: 500 µM; treatment time 1 h; system: HEK293T cell lysate
Procedure, shortened: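 For each cysteine, the log2 competition ratio is mean control-channel reporter intensity over mean compound-channel reporter intensity. HEK293T lysate (2 mg/mL) was exposed to vehicle or electrophile (500 µM, 1 h, ambient temperature), labelled with iodoacetamide alkyne (1 h), clicked to sCIP-TMT reagents, digested overnight with trypsin at 37 °C, streptavidin-enriched and analysed by Orbitrap Eclipse LC-MS/MS with FAIMS and FragPipe. Cysteines quantified in only one of three replicates, each with duplicate channels, were excluded.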

Protein sequences, listed by entry. Tags and fused reporters are not part of them. Lines headed by an entry give the natural chain unless they say otherwise; changes in a name come on top.
UniProt P46013: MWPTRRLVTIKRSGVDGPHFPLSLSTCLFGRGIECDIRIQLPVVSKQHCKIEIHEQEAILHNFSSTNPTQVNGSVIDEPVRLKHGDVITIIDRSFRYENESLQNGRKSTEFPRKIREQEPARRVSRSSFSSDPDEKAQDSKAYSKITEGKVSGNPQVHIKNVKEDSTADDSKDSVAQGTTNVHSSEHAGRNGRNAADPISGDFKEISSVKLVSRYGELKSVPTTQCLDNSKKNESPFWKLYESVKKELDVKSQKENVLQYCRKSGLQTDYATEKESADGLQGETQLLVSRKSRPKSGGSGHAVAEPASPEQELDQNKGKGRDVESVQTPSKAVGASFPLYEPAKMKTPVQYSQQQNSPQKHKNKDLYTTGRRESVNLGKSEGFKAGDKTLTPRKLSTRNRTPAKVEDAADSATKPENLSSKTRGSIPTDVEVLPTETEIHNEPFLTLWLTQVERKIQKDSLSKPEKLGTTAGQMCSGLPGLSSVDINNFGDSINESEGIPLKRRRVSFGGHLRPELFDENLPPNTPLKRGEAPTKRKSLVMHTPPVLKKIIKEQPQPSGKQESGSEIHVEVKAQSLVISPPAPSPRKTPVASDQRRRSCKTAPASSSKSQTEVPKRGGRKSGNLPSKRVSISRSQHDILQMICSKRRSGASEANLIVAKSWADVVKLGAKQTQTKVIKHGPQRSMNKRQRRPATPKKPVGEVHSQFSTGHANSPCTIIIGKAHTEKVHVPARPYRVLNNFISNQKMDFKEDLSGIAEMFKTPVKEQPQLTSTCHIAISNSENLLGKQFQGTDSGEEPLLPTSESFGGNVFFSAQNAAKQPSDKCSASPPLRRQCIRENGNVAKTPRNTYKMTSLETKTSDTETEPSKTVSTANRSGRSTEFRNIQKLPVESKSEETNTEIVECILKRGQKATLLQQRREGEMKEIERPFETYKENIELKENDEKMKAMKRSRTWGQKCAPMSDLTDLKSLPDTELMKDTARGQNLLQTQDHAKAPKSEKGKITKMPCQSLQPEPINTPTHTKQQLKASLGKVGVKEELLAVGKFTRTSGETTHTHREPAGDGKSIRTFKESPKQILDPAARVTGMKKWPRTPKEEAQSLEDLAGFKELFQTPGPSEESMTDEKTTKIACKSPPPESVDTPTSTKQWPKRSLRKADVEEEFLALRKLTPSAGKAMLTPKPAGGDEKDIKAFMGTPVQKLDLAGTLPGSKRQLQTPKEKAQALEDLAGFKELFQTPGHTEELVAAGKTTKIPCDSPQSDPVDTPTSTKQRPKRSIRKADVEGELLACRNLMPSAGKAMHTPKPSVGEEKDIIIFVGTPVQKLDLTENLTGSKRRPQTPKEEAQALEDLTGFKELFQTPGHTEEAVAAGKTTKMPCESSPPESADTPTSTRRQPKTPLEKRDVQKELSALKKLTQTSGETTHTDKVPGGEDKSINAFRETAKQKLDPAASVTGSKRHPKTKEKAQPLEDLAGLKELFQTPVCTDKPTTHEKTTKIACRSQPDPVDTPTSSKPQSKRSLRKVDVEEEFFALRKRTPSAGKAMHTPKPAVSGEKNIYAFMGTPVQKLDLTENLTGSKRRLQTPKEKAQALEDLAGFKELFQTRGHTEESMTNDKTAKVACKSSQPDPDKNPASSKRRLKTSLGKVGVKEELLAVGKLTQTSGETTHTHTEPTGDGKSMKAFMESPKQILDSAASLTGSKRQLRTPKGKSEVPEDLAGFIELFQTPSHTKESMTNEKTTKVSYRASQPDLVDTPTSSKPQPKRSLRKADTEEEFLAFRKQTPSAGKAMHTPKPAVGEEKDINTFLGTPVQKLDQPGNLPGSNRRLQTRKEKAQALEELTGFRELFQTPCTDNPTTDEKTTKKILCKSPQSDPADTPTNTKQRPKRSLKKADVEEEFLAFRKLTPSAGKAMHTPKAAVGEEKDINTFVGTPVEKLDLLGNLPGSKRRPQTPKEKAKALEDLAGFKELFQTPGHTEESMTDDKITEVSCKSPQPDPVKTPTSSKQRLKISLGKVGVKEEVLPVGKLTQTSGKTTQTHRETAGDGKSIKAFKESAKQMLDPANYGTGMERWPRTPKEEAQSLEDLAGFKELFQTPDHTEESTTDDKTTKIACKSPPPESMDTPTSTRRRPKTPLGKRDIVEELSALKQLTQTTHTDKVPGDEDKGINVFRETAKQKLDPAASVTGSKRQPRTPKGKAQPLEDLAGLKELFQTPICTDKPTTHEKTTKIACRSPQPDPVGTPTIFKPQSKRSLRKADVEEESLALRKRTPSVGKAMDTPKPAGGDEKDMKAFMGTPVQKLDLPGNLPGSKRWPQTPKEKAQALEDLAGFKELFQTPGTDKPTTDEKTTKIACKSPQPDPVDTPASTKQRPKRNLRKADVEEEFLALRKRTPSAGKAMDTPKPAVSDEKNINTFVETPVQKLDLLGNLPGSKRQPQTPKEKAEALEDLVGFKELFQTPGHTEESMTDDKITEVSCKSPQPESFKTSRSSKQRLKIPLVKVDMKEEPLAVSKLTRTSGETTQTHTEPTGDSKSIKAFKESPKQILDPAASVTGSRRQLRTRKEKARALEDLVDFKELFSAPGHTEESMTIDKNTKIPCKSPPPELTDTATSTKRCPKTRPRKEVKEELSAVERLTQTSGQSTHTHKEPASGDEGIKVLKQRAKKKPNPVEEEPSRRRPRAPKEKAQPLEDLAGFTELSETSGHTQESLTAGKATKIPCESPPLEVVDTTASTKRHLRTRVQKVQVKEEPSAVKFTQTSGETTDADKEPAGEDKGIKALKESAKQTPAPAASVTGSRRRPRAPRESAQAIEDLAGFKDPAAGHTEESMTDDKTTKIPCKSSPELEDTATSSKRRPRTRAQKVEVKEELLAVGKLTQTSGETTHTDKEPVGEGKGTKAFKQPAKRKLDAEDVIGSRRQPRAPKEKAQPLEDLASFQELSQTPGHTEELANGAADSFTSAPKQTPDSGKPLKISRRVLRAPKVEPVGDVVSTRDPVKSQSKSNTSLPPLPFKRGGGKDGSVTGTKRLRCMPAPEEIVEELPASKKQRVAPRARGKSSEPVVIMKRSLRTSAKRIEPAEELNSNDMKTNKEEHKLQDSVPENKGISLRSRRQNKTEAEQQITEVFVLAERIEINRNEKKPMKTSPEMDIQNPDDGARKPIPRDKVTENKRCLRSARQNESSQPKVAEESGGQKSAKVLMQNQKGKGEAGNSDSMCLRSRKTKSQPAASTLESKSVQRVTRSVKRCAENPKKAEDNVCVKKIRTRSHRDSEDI
UniProt P46940, whole entry, looked up: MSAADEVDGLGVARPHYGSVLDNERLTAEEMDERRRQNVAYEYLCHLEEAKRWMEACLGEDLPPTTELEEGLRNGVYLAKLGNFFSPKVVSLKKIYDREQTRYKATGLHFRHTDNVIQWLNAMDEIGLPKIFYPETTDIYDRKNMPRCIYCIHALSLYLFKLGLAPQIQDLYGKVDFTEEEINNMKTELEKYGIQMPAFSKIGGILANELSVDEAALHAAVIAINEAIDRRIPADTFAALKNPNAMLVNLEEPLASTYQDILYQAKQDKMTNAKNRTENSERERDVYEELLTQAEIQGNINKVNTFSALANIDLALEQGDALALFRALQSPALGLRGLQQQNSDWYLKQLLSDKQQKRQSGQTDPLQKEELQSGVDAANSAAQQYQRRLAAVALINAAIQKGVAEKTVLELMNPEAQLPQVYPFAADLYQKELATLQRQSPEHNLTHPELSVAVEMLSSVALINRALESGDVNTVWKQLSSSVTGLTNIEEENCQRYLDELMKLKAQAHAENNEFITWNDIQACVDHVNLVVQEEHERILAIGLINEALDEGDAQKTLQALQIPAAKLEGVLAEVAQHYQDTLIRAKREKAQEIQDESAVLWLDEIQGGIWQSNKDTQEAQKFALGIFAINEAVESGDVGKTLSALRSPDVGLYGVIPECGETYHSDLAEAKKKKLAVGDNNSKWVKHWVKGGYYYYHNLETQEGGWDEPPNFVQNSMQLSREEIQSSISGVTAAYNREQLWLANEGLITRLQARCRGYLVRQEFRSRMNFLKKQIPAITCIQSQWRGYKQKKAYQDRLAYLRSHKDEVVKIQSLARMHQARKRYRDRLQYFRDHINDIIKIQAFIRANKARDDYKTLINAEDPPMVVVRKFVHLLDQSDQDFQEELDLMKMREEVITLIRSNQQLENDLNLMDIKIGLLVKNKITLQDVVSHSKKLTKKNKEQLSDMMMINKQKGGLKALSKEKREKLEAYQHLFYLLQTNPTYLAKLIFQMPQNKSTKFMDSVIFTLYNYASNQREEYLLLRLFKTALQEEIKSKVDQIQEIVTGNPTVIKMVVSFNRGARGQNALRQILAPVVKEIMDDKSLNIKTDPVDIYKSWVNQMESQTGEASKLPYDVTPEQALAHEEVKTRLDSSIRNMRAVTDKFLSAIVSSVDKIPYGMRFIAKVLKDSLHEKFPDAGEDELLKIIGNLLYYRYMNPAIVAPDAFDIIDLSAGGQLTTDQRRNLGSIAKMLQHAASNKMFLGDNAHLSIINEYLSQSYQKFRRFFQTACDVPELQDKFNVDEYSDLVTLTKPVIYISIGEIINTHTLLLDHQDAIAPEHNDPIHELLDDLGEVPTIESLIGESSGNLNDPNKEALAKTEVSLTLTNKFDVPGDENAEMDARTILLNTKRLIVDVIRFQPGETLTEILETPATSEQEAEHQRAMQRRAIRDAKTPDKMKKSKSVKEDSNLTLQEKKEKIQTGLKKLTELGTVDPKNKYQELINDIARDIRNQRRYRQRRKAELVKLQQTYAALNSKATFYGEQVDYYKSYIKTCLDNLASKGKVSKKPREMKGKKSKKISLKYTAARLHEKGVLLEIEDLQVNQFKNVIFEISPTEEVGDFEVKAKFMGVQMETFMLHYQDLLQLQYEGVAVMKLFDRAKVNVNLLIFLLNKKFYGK
UniProt P49336: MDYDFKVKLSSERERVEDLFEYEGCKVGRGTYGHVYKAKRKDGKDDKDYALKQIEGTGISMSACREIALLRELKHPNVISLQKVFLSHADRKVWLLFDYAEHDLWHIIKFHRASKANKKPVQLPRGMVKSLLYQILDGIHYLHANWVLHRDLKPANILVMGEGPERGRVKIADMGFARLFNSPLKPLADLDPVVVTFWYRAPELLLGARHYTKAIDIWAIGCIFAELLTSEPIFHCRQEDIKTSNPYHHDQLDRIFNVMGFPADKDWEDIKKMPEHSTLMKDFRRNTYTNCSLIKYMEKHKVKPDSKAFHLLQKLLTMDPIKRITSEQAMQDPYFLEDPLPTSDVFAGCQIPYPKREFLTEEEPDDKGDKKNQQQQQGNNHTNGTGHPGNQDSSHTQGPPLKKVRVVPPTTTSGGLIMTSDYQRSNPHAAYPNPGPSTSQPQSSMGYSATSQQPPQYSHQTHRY
UniProt P43246, whole entry, looked up: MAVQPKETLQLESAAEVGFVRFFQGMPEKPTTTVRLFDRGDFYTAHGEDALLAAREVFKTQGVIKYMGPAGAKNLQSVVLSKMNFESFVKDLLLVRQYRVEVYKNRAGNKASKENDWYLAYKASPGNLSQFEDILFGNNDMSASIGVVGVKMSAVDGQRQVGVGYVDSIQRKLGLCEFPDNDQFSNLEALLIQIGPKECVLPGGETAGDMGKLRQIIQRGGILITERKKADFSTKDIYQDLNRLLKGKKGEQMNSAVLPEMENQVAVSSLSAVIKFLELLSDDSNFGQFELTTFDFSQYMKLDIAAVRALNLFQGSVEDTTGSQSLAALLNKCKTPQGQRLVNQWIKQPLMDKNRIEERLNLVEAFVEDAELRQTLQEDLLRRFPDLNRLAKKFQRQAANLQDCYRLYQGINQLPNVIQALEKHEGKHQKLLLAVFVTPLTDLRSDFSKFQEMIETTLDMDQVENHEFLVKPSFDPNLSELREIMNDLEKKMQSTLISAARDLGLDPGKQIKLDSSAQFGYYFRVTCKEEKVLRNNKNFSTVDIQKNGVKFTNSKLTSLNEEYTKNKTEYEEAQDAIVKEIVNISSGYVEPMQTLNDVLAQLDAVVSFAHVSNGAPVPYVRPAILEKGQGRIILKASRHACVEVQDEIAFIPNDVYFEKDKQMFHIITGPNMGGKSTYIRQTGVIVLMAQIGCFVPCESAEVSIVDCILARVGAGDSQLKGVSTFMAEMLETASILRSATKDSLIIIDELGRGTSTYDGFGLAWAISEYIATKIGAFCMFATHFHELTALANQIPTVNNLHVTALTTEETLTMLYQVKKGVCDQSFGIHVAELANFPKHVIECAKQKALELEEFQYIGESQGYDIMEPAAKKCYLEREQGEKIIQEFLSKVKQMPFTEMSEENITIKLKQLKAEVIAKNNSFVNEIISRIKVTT

log2 ratio of iodoacetamide-alkyne labeling, inactive:
MKI67 C1479 (UniProt P46013) 0.282
IQGAP1 C1534 (UniProt P46940) 0.224
NDUFV1 C206 (UniProt P49821) -0.0789
USP5 C219 (UniProt P45974) -0.413
CCT5 C302 (UniProt P48643) 0.114
RANGAP1 C338 (UniProt P46060) 0.0536
RPL14 C42 (UniProt P50914) 0.16
CDK8 C25 (UniProt P49336) 0.0754
RPL5 C100 (UniProt P46777) 0.195
CCT8 C149 (UniProt P50990) 0.0942
MATR3 C821 (UniProt P43243) 0.169
NUP153 C585 (UniProt P49790) 0.0581
NASP C84 (UniProt P49321) 0.195
EIF2B2 C310 (UniProt P49770) 0.0373
CCT3 C455 (UniProt P49368) 0.149
MSH2 C843 (UniProt P43246) 0.343
PREP C57 (UniProt P48147) 0.143
CCT5 C253 (UniProt P48643) -0.00151
RANGAP1 C573 (UniProt P46060) -0.112
FASN C2359 (UniProt P49327) -0.123
MAP1B C2041 (UniProt P46821) 0.158

Fetched one by one from above (two):
log2 ratio of iodoacetamide-alkyne labeling, inactive:
RPL5 C100 (UniProt P46777) 0.195
FASN C2359 (UniProt P49327) -0.123
